Results published in PMC8386835.
No constants are given. Whether binding was seen depends on the method and setting. For some assays here: Binding seen in cells or lysates may run through a third protein. Where a sequence is shown, tags or fusion partners need not be part of it. Some binding calls cover weakened binding; strength is not graded here.

The chains behind the UniProt entries cited, without tags or fusion partners.
UniProt Q60972: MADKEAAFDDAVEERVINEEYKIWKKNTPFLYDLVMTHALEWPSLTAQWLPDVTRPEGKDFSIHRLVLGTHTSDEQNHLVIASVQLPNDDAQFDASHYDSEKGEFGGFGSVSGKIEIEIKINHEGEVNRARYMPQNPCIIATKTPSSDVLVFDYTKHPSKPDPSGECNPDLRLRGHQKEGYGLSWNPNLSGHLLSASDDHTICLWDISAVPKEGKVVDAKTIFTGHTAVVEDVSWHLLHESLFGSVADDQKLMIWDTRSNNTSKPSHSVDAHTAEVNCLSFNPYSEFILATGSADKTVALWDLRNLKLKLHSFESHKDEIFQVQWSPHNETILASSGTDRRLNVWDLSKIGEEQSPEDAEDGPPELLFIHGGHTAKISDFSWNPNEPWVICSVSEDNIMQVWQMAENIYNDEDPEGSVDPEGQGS

Tests used:
[1] = target: BD-RBBP4 (mouse) (UniProt Q60972); assay: two-hybrid; AD prey in Y187 mated with BD bait in AH109; growth on -LW, -LWH with 5 mM 3-AT and -LWHA plates at 30°C for 3-5 days
[2] = target: T1, MYC-MTL5 (mouse) (UniProt Q9WTJ6); assay: co-IP; HEK293T co-transfected with MYC-tagged MTL5 and GFP-tagged partner; NP-40 buffer lysate, Myc-Tag magnetic beads, overnight at 4°C; Western blot
T1 sequence: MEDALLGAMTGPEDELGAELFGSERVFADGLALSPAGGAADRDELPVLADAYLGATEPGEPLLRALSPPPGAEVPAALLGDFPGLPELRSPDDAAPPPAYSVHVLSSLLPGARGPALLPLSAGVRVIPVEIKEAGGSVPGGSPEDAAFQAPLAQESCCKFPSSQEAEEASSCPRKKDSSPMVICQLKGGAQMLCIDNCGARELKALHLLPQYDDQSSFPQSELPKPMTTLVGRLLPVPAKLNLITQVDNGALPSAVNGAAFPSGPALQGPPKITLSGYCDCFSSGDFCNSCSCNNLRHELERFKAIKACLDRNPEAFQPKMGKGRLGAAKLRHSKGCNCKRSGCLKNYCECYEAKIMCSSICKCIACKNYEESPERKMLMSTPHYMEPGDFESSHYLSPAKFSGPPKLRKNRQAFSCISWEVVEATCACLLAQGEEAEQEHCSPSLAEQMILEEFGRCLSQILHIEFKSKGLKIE

B1: AD-MTL5 (protein, UniProt Q9WTJ6-1 1-475)
chain: T1 sequence
binding [1]: binds

B2: GFP-LIN54 (protein, UniProt Q571G4 1-749)
chain: MEVVPAEVNSLLPDDIMDTAITLVDEDSIEAVIVSSPIPMETELEEIVNINSTGDSTATPISTEPITVYSNHTNQVAVNTTVSKADSNTTVKPAFPSGLQKLGAQTPVTISANQIILNKVSQTSDLKLGNQTLKPDGQKLILTTLGKSGSPIVLALPHSQLPQAQKVTAQAQPGDAKLPPQQIKVVTIGGRPEVKPVIGVSALTPGSQLINTTTQPSVLQTQQLKTVQIAKKPRTPTSGPVITKLIFAKPINSKAVTGQTTQASPPVVTGRVLSQSTPGTPSKTITISESGVIGSTLNSTTQTPNKIAISPLKSPNKTVKSAVQTITVGGMSTSQFKTIIPLATAPNVQQIQVPGSKFHYVRLVTATTASSSAQPVSQSPSVNTQPLQQAKPVVVNTTPVRMSVPFVQAQAVKQVVPKPINSTSQIVTTSQPQQRLIMPATPLPQIQPNLTNLPPGTVLAPAPGTGNVGYAVLPAQYVTQLQQSSYVSIASNSNFTGTSGIQTQARLPFNGIIPSESTSRPRKPCNCTKSLCLKLYCDCFANGEFCNNCNCTNCYNNLEHENERQKAIKACLDRNPEAFKPKIGKGKEGESDRRHSKGCNCKRSGCLKNYCECYEAKIMCSSICKCIGCKNFEESPERKTLMHLADAAEVRVQQQTAAKTKLSSQISDLLTRPTPALNSAGGKLPFTFVTKEVAEATCNCLLAQAEQADKKGKSKAAAERMILEEFGRCLMSVINSAGKAKSDPCAMHC
binding [2]: no binding
